Test results reported in patent US4782160A, “1,4-dihydropyridine derivatives” (Yamanouchi Pharmaceutical Co., Ltd., priority 1986, dated 1988).
pKi: −log10 of the molar value.

Target: [^3 H]-Nitrendipine-labeled calcium channels
Assay: [3H]-nitrendipine binding assay in rat brain membranes (Ca2+-antagonistic activity)
Settings: mean of 3 experiments, 95% confidence limits in parenthesis on next line
Experimental: 1. Ca^2+ -Antagonistic activity:
Ca^2+ -Antagonistic activity of the compound was evaluated in [^3 H]-nitrendipine ([^3 H]-NIT) binding assay.

COC(=O)C1=C(C)NC(C)=C(C(=O)OC)C1c1ccccc1[N+](=O)[O-] [Nifedipine, reference compound] gave a pKi of 8.34.
